The assay concerns the target Promyelocytic Leukemia protein (PML) (human (endogenous in BJ)) (UniProt P29590). Description: proximity ligation.

Amino acid sequences for entries named in this document (tags omitted).
UniProt P29590: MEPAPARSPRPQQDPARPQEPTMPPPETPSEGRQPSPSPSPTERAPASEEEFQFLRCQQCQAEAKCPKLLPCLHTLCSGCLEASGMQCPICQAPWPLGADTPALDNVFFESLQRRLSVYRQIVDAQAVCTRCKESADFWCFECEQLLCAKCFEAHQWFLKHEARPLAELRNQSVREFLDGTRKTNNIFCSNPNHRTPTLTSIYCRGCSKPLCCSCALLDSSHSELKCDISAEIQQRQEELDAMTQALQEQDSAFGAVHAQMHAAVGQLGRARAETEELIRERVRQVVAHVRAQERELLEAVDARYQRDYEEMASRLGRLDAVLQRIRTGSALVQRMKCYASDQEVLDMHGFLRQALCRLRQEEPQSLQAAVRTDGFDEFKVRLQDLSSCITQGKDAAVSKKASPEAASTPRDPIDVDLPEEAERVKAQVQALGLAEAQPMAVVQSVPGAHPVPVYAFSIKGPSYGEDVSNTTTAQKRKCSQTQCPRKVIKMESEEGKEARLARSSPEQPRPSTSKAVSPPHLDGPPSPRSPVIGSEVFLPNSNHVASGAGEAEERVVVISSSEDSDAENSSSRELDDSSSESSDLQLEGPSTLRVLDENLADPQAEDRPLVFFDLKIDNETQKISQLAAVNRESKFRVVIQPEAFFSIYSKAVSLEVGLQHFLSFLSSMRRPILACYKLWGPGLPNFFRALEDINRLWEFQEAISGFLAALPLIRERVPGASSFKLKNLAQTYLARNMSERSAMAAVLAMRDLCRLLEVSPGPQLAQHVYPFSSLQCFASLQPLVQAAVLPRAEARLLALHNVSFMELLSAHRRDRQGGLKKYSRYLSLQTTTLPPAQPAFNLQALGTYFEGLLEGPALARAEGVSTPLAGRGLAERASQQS
UniProt P54198: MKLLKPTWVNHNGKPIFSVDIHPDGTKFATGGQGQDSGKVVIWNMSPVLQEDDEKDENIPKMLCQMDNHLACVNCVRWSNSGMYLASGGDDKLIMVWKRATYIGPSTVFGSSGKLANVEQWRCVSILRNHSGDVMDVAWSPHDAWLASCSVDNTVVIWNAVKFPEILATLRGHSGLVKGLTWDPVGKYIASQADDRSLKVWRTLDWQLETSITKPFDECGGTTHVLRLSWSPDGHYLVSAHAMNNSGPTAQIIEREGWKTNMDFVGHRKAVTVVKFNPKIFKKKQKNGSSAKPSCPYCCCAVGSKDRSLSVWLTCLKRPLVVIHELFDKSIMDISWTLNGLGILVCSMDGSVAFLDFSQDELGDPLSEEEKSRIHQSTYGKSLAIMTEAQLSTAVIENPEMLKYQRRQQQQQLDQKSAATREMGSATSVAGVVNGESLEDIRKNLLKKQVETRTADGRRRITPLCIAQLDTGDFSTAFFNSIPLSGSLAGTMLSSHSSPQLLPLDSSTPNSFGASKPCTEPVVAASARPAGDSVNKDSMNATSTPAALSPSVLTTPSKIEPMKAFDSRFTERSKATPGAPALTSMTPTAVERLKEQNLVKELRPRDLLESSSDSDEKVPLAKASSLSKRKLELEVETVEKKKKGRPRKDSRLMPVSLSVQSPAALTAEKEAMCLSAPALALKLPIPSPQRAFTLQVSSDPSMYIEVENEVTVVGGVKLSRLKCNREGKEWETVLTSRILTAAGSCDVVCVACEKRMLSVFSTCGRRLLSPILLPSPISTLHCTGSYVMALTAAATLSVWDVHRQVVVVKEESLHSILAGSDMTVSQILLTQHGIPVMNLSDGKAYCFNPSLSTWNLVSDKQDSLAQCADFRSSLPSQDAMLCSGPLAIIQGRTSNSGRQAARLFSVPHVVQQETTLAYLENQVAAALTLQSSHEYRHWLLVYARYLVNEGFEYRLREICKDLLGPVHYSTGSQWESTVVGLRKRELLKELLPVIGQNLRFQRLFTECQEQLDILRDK

These are yes or no findings as the source states them, for the method shown. Binding seen in cells or lysates may run through a third protein. Some entries that bind do so weakly or less than the wild type.

As for “Histone cell cycle regulator A (HIRA) (from UniProt P54198 1-1017)”, the binding entry is listed as “binds”.

Source of the values: article doi:10.1101/2021.11.30.470516.
